Reference: the supplement of paper PMC10849652
This is one part of the list.

Sequences of proteins named here, by UniProt entry; tags and fusion partners are left off. A change or cut given only in a name is not applied to a line headed by its entry.
UniProt Q8IWE4: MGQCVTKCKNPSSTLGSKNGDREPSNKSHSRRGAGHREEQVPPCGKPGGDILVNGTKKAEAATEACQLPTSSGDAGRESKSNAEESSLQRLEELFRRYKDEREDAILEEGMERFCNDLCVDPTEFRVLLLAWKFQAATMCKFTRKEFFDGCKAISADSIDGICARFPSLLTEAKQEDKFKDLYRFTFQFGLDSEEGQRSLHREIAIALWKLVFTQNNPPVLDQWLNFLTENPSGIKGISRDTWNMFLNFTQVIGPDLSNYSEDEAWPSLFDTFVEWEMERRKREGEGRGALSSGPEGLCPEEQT
UniProt Q6ICB0: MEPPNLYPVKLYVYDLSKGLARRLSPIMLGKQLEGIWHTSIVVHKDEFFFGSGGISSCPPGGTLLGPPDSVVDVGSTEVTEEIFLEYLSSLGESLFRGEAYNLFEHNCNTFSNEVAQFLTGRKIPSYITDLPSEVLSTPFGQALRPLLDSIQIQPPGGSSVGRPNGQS
UniProt Q5VW00: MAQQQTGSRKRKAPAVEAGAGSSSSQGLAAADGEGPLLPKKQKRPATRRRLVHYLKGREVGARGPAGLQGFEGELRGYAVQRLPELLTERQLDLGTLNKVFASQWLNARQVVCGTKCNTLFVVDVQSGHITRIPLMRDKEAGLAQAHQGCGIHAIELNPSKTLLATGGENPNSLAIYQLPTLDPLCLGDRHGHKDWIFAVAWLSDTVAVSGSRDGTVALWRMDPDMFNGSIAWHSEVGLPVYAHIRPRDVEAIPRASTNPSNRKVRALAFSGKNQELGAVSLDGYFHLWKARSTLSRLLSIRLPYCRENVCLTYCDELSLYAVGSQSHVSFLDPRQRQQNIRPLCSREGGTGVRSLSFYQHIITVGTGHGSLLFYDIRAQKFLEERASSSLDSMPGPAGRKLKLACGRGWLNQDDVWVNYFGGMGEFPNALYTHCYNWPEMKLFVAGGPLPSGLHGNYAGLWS
UniProt Q96PD2: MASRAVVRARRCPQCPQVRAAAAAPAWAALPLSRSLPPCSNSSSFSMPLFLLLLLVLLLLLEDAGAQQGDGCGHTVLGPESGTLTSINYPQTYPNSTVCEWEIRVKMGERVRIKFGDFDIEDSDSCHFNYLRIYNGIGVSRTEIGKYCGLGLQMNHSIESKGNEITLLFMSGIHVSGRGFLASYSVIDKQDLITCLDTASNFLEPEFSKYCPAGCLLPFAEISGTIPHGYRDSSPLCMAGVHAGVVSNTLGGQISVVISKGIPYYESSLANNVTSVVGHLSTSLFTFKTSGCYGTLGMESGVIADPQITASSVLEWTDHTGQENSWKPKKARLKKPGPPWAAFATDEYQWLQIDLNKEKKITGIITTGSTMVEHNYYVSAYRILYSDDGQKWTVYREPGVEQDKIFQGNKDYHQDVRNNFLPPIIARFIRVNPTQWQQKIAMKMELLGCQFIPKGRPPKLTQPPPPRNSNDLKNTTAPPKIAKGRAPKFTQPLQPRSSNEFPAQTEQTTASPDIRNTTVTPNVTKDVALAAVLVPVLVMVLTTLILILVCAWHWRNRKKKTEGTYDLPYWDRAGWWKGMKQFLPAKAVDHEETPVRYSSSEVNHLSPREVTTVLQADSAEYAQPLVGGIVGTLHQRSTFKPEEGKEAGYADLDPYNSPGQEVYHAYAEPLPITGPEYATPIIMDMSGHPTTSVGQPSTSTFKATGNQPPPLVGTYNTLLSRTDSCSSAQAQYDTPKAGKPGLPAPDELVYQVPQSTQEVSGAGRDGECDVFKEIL
UniProt Q5H9U9: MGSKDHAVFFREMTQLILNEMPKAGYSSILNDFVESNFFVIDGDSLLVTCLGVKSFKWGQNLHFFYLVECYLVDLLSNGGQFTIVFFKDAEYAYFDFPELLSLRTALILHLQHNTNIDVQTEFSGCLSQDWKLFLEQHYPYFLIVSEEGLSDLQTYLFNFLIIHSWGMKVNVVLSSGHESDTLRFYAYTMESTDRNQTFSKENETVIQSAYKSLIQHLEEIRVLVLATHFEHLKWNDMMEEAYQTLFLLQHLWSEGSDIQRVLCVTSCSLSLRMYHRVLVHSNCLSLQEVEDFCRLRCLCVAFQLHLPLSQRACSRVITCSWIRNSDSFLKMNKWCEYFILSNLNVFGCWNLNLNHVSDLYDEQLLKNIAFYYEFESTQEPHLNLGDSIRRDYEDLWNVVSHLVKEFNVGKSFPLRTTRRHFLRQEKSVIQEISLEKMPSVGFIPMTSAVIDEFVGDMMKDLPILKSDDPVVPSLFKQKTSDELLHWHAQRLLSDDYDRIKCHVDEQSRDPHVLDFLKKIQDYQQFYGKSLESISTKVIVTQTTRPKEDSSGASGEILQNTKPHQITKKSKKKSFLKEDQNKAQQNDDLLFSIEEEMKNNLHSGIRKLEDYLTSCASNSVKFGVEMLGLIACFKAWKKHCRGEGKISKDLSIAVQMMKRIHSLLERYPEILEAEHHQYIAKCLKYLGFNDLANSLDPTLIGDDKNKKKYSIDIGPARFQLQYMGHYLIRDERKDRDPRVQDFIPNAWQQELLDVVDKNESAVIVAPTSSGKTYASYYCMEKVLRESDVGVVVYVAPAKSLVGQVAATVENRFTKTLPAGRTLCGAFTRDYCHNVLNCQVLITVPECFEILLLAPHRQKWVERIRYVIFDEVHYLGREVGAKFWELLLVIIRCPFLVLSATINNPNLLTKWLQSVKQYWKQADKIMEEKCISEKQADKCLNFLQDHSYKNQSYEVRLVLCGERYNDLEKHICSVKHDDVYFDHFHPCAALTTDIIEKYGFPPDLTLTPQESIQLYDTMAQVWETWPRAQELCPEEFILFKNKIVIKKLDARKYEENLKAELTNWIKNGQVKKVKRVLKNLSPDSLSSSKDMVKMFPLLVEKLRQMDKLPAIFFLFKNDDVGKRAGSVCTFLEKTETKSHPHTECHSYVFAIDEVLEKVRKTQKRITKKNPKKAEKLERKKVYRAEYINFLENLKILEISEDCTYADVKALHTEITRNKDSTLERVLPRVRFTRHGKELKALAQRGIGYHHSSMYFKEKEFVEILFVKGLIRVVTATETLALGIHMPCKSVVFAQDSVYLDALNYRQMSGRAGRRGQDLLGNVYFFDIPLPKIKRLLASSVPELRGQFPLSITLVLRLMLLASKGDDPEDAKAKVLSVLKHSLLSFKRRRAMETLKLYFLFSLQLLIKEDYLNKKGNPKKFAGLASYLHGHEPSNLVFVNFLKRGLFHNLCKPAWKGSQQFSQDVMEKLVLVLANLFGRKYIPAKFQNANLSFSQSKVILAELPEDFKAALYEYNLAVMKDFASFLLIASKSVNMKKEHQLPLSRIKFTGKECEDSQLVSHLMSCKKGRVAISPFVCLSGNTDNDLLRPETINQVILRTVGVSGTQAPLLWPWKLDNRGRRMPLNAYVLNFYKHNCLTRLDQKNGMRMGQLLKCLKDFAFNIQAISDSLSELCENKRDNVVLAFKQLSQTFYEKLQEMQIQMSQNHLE
UniProt Q9NX09: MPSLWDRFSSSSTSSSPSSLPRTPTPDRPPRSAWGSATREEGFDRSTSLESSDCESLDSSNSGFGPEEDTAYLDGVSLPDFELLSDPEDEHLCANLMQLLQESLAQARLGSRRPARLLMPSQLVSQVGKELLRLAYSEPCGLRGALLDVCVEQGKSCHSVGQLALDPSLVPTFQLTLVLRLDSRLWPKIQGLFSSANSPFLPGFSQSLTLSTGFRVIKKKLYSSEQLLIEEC
UniProt Q9BSY9: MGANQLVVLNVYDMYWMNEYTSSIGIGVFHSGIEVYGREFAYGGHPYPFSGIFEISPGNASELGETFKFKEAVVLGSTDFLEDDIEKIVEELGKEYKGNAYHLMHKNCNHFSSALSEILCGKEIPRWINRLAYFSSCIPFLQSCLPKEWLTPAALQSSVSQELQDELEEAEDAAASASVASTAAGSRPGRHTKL
UniProt P35638, whole entry, looked up: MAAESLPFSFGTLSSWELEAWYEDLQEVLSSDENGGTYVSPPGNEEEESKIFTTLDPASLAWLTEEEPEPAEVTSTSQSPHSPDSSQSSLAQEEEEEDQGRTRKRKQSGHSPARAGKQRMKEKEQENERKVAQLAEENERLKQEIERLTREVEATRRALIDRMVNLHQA
UniProt O43739: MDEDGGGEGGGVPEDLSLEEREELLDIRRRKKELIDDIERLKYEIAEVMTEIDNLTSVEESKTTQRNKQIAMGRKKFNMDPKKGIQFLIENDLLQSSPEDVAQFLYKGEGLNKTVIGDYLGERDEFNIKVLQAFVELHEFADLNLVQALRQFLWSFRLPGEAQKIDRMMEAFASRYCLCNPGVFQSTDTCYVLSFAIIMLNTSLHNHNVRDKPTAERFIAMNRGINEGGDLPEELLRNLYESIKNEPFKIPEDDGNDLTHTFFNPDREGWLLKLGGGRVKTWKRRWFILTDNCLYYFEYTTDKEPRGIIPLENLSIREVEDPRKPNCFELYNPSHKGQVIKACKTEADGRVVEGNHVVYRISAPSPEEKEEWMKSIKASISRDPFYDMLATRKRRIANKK
UniProt Q8WUY9, whole entry, looked up: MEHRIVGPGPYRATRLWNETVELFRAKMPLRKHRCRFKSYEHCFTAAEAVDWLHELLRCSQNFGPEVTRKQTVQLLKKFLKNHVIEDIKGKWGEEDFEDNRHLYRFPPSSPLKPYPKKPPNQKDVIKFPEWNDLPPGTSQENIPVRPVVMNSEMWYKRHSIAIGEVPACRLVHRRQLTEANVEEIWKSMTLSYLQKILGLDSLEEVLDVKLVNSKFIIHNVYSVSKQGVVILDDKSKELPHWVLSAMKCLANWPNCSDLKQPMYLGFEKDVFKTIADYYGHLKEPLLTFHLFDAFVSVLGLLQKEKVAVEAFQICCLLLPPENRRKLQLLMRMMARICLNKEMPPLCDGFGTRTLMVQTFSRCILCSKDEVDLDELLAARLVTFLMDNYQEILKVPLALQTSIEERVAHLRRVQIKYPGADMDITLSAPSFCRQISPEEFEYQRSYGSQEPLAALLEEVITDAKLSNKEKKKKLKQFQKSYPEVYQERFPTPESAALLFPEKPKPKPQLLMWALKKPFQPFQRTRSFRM
UniProt Q8N8Z6: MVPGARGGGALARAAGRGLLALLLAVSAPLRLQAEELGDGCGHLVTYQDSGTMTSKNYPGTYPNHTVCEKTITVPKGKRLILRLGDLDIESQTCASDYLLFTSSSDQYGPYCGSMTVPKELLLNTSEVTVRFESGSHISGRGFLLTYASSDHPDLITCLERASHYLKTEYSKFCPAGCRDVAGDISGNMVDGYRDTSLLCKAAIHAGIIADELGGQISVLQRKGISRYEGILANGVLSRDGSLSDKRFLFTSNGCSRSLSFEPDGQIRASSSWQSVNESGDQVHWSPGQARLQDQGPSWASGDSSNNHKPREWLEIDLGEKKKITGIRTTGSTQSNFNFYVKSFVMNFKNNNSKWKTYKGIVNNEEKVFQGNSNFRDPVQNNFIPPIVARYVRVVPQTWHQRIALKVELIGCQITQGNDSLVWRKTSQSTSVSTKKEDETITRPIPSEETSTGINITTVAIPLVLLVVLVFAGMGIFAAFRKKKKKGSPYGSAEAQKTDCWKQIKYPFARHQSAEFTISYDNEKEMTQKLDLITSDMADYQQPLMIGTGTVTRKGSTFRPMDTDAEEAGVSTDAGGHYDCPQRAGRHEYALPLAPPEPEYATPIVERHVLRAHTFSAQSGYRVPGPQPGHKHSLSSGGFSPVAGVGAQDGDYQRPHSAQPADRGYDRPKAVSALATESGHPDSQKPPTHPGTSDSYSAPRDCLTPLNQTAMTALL
UniProt O75398: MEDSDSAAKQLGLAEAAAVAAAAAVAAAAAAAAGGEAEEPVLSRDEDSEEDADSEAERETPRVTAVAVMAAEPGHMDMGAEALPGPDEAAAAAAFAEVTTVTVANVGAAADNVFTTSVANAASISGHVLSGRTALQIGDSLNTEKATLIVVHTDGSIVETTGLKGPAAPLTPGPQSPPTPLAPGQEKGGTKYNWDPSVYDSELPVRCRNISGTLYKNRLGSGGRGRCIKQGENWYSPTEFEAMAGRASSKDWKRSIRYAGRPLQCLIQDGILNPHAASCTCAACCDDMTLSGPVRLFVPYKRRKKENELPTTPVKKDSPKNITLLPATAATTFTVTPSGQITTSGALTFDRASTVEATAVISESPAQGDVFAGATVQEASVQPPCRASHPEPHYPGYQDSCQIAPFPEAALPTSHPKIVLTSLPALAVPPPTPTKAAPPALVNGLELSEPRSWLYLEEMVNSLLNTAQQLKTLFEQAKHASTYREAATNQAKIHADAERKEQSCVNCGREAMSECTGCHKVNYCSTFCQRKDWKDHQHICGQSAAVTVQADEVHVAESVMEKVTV
UniProt Q9BWK5: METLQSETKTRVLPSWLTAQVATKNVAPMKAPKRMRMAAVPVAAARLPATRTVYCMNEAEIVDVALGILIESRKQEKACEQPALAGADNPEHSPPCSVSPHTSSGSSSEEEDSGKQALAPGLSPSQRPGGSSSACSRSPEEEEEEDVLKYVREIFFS
UniProt Q15038: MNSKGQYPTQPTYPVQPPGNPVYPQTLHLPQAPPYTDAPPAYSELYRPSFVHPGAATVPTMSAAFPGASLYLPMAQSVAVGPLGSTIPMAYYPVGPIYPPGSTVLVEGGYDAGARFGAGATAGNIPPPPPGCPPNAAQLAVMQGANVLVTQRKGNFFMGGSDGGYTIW

Experiments:
Assay in all cases: log2 fold change, soluble protein after heating vs DMSO (PISA); higher = thermal stabilisation; K562 lysate, 10 uM; active = over 0.2 and 3.5 SD of the protein, either way, in both replicates (recomputed)
[1] = compound: C1=CC2=NC=CN=C2C=C1/C=C/3\C(=O)NC(=O)S3
Procedure, shortened: (§1)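 To prepare the extract, K562 pellets were dounce-homogenised in PBS pH 7.4 with 1 mM MgCl2, giving crude material at 1 mg/mL protein. This was treated with 10 μM compound for 30 min, then heated in aliquots for 3 min over 48°C-58°C before pooling and addition of NP-40 to 0.5% at 4°C. Centrifugation at 21,000xg for 90 min left soluble protein in the supernatant, which TMTpro 16plex LC-MS/MS quantified with equalised channel sums. Results are log-two fold changes in thermal stability compared with solvent controls, from duplicates.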

[2] = compound: C1CCN(C1)C(=O)NC2=CC=CC(=C2)NC3=NC=C(C(=N3)NCCC4=CN=CN4)Br
Procedure, shortened: as §1

[3] = compound: C1CN(CCC1(CC2=CC=C(C=C2)Cl)N)C3=NC=NC4=C3C=CN4
Procedure, shortened: as §1

ibrutinib = compound: C=CC(=O)N1CCC[C@@H](n2nc(-c3ccc(Oc4ccccc4)cc3)c3c(N)ncnc32)C1 [ibrutinib]
Procedure, shortened: as §1

[4] = compound: CC1=C(C(CC(=O)N1)C2=CC=C(C=C2)C(F)(F)F)C(=O)NC3=C(C=C4C(=C3)C=NN4)F
Procedure, shortened: as §1

[5] = compound: CC1=C(C2=C(C=C1)C(=O)C3=CC=CC=C3N2CCCN)C
Procedure, shortened: as §1

[6] = compound: C/C(=N\NC(=O)C1=CC(=CC=C1)S(=O)(=O)N2CCOCC2)/C3=C(C=CC(=C3)Cl)O
Procedure, shortened: as §1

[7] = compound: C1=CC2=C(C=CC(=C2)/C=C\3/C(=O)NC(=NCC4=CC=CS4)S3)N=C1
Procedure, shortened: as §1

[8] = compound: C1=CC=C2C(=C1)C3=NNC4=CC=CC(=C43)C2=O
Procedure, shortened: as §1

[9] = compound: CC1=C(C=C(C=C1)NC(=O)C2=CC(=CC=C2)C(C)(C)C#N)NC3=CC4=C(C=C3)N=CN(C4=O)C
Procedure, shortened: as §1

[10] = compound: C1=CC=C(C=C1)C2=NC(=C(N2)C3=CC=NC=C3)C4=CC(=C(C=C4)Cl)O
Procedure, shortened: as §1

IRAK-1-4 Inhibitor I = compound: C1COCCN1CCN2C3=CC=CC=C3N=C2NC(=O)C4=CC(=CC=C4)[N+](=O)[O-] [IRAK-1-4 Inhibitor I]
Procedure, shortened: as §1

ralimetinib = compound: CC(C)(C)Cn1c(N)nc2ccc(-c3[nH]c(C(C)(C)C)nc3-c3ccc(F)cc3)nc21 [ralimetinib]
Procedure, shortened: as §1

[11] = compound: CC(C)(O)CC(=O)NCCn1ccc2ncnc(Nc3ccc(Oc4cccc(C(F)(F)F)c4)c(Cl)c3)c21
Procedure, shortened: as §1

[12] = compound: CC1=C(C=C(C=C1)NC(=O)C2=CC(=CC=C2)N(C)C)NC(=O)C3=CC=C(C=C3)O
Procedure, shortened: as §1

[13] = compound: CC(=O)c1cnc2ccc(-c3cc(Cl)c(O)c(Cl)c3)nc2c1N[C@H]1CC[C@H](CN(C)C)CC1
Procedure, shortened: as §1

[14] = compound: CC1=CC=C(C=C1)SC2=C3C=C(SC3=CN=C2)C(=O)N
Procedure, shortened: as §1

erlotinib = compound: C#Cc1cccc(Nc2ncnc3cc(OCCOC)c(OCCOC)cc23)c1 [erlotinib]
Procedure, shortened: as §1

[15] = compound: C1=CC(=CC=C1C2=NC3=C(N2)C=C(C=C3)C(=O)N)OC4=CC=C(C=C4)Cl
Procedure, shortened: as §1

[16] = compound: CC(C)C1=C2N=C(C=C(N2N=C1)NCC3=CC=CC=C3)NCCCCCCN
Procedure, shortened: as §1

Measured: log2 fold change

DCUN1D3 (UniProt Q8IWE4)
inactive: [1] -0.037 | [2] 0.161 | [3] 0.031 | ibrutinib 0.01 | [4] -0.065 | [5] -0.009

DAZAP1 (UniProt K7EQ02)
inactive: [4] 0.033

DESI1 (UniProt Q6ICB0)
inactive: [6] 0.256 | [7] 0.033 | [1] 0.022 | [8] 0.038 | [2] 0.098 | [3] 0.091 | ibrutinib 0.131 | [4] -0.021 | [5] 0.137 | [9] -0.015

DCAF12L2 (UniProt Q5VW00)
inactive: [6] 0.495 | [7] -0.012 | [1] -0.01 | [8] 0.02 | [2] 0.006 | [3] -0.058 | ibrutinib -0.026

DDR1 isoform 5 (UniProt Q08345)
inactive: [1] 0.044 | [10] 0.04 | [2] -0.011 | [3] -0.016 | IRAK-1-4 Inhibitor I 0.097 | ibrutinib 0 | ralimetinib 0.205 | [11] 0.021 | [4] -0.117 | [5] -0.099 | [9] 0.38 | [12] 0.117

DCBLD2 isoform 2 (UniProt Q96PD2)
inactive: [10] -0.588 | IRAK-1-4 Inhibitor I -0.134 | [13] -0.091 | ralimetinib 0.119 | [11] -0.131 | [5] 0.117 | [12] 0.366 | [14] 0.173

DCLRE1C (UniProt Q96SD1)
inactive: [10] 0.046 | IRAK-1-4 Inhibitor I 0.076 | [13] 0.124 | ralimetinib -0.034 | [11] -0.068 | [9] 0.073 | [12] 0.126 | [14] -0.133

DDX51 (UniProt Q8N8A6)
inactive: erlotinib -0.067 | [15] 0 | [10] 0 | IRAK-1-4 Inhibitor I -0.054 | [13] 0.016 | ralimetinib 0.057 | [11] -0.046 | [16] 0.058 | [4] 0.074 | [5] 0.061 | [9] 0.047 | [12] 0.044 | [14] -0.015

DDX39B (UniProt H0Y400)
inactive: [13] 0.001 | [14] -0.01

DCAF17 (UniProt Q5H9S7)
inactive: [13] -0.106 | [4] 0.101 | [14] 0.042

DCTD (UniProt D6RAD7)
inactive: [4] 0.005

DDX60L (UniProt Q5H9U9)
inactive: [13] 0.066 | [5] -0.073 | [14] 0

DDIT4 (UniProt Q9NX09)
inactive: [6] 0.381 | [7] -0.055 | [8] -0.022 | [2] -0.171 | [3] -0.062 | [9] 0.102

DESI2 (UniProt Q9BSY9)
inactive: [6] 0.195 | [7] -0.043 | [8] 0.119 | [2] 0.002 | [3] 0.067

DENND5A (UniProt Q6IQ26)
inactive: [5] 0.048 | [9] 0.027

DDB1 isoform 2 (UniProt Q16531)
inactive: [13] -0.327 | [14] -0.104

DAPK3 (UniProt O43293)
inactive: [6] -0.048 | [7] 0.183 | [8] 0.202 | [13] 0.546 | [14] 0.072

DDIT3 isoform 2 (UniProt P35638)
inactive: [6] 0.056 | [7] 0.004 | [8] 0.029 | [2] -0.004 | [3] -0.037 | [4] 0.069 | [9] 0.135

Quoted from the listing (2 entries):
DESI2 (UniProt Q9BSY9)
inactive: [6] 0.195 | [7] -0.043 | [8] 0.119 | [2] 0.002 | [3] 0.067

DENND5A (UniProt Q6IQ26)
inactive: [5] 0.048 | [9] 0.027

(listing goes on)

DCAF4 (UniProt Q8WV16)
inactive: [1] -0.227 | [2] -0.095 | [3] -0.047 | ibrutinib 0.086 | [13] 0.009 | [4] -0.051 | [5] 0.05 | [9] 0.235 | [14] 0.009

CYTH3 (UniProt O43739)
inactive: [10] -0.041 | IRAK-1-4 Inhibitor I 0.099 | [13] 0.043 | ralimetinib -0.192 | [11] 0.095 | [12] 0.215 | [14] -0.041

DDX39B (UniProt F6R6M7)
inactive: [4] 0.058

DEPDC1B (UniProt Q8WUY9)
inactive: [6] -0.095 | [7] 0.01 | [10] -0.089 | [8] 0.417 | [2] -0.03 | [3] 0.139 | IRAK-1-4 Inhibitor I -0.007 | ralimetinib 0.133 | [11] -0.125 | [4] 0.247 | [5] 0.433 | [12] -0.017

DCBLD1 (UniProt Q8N8Z6)
inactive: [2] -0.441 | [3] 0.305 | [13] 0.079 | [5] 0.095 | [14] -0.066

DET1 isoform 2 (UniProt Q7L5Y6)
inactive: erlotinib 0.104 | [15] 0.094 | [10] 0.167 | IRAK-1-4 Inhibitor I -0.051 | [13] -0.036 | ralimetinib 0.131 | [11] 0.092 | [16] -0.045 | [9] 0.065 | [12] -0.15 | [14] 0.217

DEAF1 (UniProt O75398)
inactive: [2] -0.082 | [3] 0.185 | [5] -0.25

CYREN isoform 4 (UniProt Q9BWK5)
inactive: erlotinib 0.059 | [15] 0.062 | [10] -0.09 | IRAK-1-4 Inhibitor I -0.028 | ralimetinib -0.009 | [11] -0.048 | [16] -0.164 | [4] -0.099 | [5] -0.123 | [9] 0.072 | [12] 0.008

DAZAP2 (UniProt Q15038)
inactive: erlotinib 0.028 | [15] 0.126 | [16] 0.007

DDX46, A0A0C4DG89
inactive: [6] -0.135 | [7] 0.03 | [1] 0.047 | [8] -0.161 | [2] -0.085 | [3] -0.066 | ibrutinib -0.211 | [13] 0.006 | [4] 0.157 | [5] -0.035 | [14] -0.024
